Laboratory results taken from the supplement of paper PMC10849652.
Some of the results follow.

By UniProt entry, the sequences of proteins in these tests, tags left out. Where a name states a change or a piece, a line headed by the entry shows the natural chain unless it says otherwise.
UniProt Q9Y3A5: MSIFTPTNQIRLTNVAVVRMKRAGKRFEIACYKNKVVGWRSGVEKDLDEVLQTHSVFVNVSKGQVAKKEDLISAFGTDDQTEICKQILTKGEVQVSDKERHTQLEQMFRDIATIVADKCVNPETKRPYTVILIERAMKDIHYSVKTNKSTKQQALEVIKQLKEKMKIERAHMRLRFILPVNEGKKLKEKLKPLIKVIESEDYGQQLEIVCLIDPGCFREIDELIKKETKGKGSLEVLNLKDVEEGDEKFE
UniProt Q6P3W7: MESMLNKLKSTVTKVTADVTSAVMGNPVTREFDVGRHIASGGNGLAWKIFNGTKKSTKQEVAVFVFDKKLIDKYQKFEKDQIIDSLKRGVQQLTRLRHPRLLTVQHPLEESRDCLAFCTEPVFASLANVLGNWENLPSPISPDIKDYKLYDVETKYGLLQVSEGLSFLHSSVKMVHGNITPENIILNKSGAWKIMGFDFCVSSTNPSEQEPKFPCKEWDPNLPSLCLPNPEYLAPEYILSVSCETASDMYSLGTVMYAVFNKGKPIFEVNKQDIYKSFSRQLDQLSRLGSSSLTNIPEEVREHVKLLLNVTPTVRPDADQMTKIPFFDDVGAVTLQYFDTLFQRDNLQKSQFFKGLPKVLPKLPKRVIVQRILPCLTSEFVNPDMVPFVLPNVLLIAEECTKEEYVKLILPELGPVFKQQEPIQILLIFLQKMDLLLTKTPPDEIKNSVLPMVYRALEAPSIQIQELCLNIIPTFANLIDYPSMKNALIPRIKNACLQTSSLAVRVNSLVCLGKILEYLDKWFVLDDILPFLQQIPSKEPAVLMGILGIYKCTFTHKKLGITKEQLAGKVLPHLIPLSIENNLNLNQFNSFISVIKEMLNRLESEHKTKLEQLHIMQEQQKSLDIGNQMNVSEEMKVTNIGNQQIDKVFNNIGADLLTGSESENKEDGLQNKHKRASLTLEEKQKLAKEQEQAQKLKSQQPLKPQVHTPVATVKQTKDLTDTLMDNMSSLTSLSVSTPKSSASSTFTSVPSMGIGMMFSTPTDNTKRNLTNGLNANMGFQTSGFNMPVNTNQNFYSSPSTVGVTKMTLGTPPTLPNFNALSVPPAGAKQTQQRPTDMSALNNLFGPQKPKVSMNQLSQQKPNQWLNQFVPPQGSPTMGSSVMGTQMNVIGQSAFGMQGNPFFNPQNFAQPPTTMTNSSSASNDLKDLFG
UniProt Q6IQ49: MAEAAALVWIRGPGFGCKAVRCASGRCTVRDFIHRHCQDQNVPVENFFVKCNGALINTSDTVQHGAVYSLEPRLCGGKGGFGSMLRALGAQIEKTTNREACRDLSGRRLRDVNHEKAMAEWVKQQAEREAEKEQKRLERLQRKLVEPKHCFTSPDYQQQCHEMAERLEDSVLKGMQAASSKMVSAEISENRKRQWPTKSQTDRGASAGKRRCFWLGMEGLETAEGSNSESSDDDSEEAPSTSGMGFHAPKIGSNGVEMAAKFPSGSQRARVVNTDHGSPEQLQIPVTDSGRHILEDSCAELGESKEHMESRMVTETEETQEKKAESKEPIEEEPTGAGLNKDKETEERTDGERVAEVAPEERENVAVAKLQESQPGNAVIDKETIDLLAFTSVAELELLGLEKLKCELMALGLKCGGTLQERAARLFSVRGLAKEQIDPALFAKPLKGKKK
UniProt Q15437: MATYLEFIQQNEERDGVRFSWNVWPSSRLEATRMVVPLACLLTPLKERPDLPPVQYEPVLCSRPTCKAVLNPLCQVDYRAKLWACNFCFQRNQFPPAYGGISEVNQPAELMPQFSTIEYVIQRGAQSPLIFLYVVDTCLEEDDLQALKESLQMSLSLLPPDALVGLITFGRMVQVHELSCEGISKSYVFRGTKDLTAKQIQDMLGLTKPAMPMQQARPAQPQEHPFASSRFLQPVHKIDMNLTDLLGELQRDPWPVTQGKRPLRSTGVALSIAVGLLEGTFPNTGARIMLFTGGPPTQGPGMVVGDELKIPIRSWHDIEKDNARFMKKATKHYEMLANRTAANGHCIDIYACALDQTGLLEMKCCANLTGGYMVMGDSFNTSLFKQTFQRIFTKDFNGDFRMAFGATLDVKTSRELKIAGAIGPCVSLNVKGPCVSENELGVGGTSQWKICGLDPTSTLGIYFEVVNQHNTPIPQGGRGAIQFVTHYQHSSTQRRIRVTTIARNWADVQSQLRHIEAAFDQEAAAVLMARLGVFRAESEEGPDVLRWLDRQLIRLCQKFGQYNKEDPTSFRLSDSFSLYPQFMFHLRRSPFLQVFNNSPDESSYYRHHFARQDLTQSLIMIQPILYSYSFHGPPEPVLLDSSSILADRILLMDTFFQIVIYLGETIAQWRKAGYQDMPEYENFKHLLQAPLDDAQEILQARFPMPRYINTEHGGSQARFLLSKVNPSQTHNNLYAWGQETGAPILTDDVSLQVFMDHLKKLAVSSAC
UniProt O15126: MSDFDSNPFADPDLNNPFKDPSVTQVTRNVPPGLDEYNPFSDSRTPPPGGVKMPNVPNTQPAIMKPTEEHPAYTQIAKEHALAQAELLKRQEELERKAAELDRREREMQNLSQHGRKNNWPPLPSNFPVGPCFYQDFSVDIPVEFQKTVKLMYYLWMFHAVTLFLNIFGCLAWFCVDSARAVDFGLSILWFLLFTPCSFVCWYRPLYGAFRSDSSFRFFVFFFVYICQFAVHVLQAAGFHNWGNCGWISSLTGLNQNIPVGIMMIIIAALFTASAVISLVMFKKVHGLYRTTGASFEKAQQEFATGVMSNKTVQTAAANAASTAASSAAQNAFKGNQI
UniProt O75396: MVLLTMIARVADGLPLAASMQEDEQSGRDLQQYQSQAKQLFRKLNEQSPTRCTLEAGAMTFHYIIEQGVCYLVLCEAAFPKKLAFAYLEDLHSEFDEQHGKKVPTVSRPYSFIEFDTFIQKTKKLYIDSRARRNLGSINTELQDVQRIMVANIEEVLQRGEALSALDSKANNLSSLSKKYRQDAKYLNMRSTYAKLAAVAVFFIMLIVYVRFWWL
UniProt O75056, whole entry, looked up: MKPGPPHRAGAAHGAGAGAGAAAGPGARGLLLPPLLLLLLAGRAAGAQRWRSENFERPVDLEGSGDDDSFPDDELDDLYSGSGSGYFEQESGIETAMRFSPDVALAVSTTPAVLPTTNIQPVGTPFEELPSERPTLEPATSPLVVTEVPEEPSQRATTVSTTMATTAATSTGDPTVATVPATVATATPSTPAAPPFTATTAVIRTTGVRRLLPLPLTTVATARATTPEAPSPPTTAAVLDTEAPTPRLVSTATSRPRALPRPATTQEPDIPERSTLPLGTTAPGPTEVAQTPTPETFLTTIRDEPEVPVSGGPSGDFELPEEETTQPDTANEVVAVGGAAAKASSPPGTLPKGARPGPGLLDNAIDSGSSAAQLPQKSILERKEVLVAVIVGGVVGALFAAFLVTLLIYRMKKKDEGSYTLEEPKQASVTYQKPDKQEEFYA
UniProt O95197: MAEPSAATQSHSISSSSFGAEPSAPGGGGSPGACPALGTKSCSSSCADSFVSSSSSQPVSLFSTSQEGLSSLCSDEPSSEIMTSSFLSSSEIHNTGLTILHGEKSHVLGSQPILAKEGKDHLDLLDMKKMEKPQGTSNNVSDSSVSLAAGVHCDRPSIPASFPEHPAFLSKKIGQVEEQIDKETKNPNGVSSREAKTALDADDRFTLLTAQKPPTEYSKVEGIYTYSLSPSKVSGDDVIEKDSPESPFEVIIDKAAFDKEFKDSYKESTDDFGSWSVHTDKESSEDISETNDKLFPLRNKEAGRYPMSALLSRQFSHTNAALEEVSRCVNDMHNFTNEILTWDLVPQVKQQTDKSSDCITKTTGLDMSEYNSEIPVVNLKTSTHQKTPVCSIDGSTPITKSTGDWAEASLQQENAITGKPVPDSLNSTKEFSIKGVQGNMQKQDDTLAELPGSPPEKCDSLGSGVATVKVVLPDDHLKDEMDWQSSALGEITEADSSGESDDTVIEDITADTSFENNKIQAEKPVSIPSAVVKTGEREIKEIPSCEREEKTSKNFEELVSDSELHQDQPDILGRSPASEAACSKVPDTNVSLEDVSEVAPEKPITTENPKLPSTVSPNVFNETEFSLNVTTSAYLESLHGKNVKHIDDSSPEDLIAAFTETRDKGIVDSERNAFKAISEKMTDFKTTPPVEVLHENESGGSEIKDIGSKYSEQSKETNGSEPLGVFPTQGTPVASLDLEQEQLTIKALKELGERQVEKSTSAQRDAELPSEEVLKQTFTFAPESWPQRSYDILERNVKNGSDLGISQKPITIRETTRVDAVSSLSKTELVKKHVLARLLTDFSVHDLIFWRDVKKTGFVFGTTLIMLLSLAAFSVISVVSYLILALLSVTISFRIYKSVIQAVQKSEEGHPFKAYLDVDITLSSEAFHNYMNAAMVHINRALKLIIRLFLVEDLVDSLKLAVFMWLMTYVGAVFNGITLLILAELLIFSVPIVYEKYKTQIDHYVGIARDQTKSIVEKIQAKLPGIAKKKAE
UniProt Q9H446: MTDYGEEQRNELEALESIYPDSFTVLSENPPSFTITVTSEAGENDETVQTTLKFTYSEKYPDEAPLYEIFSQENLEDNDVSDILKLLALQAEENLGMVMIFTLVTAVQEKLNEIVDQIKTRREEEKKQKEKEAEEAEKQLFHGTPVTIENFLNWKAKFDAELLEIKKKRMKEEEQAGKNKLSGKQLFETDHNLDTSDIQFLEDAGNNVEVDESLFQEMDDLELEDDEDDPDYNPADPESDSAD
UniProt O14521: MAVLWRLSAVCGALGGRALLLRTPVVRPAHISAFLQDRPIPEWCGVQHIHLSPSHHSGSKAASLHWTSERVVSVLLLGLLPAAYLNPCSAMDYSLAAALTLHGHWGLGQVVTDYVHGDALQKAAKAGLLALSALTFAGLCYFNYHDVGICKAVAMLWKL
UniProt Q9Y512: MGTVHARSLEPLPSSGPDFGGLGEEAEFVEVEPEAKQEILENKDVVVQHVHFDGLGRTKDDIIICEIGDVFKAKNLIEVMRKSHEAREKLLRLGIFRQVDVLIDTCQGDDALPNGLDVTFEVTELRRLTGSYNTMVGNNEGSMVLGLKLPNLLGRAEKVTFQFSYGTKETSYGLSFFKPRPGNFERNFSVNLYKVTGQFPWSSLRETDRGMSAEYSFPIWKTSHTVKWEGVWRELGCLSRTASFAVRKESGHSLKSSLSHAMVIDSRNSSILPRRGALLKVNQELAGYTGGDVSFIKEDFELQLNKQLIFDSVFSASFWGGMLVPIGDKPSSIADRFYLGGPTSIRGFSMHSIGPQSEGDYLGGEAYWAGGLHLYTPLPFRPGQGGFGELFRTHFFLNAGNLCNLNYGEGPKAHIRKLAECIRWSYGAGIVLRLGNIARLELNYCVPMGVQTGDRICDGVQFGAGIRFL
UniProt Q86SQ7: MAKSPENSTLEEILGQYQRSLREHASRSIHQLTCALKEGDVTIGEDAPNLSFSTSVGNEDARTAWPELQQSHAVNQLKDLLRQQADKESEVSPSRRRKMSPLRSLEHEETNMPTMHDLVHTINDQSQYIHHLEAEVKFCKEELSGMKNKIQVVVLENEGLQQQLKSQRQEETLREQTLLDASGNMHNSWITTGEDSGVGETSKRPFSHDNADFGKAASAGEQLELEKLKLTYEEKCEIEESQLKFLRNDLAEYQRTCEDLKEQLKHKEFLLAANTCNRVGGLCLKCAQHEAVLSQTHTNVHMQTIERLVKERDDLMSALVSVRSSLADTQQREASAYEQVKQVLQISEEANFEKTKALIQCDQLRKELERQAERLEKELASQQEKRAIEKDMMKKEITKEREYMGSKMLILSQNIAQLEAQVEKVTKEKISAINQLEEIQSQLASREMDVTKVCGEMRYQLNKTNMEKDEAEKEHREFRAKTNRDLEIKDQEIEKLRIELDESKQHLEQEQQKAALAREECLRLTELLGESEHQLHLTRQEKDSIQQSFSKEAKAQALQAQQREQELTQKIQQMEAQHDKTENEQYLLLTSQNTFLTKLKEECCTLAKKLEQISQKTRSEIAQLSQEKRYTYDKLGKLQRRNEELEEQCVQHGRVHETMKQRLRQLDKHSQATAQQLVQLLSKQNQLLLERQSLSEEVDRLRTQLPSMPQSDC
UniProt Q96FV2: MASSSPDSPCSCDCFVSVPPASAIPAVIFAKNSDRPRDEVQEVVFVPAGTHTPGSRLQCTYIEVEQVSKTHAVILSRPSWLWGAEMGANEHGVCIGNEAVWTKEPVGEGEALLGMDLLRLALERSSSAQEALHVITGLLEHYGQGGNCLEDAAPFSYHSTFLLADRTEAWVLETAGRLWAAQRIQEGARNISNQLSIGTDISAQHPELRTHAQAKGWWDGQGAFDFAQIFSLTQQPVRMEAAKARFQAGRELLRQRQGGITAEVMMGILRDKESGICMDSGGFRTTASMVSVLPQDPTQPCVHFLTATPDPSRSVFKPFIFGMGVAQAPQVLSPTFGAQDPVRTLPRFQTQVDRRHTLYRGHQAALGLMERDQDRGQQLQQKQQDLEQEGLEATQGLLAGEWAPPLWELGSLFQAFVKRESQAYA
UniProt Q96FQ6: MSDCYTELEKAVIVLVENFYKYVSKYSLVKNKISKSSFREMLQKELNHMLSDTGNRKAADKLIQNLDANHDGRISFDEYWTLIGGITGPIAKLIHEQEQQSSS

What follows are targets tested with c1cn2cc(-c3ccc4cn[nH]c4c3)nc(Nc3ccc(N4CCOCC4)cc3)c2n1 [entospletinib] (assay: log2 fold change, soluble protein after heating vs DMSO (PISA); higher = thermal stabilisation; K562 cells, 10 uM, 30 min; active = over 0.2 and 3.5 SD of the protein, either way, in both replicates (recomputed)).
How it was run: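 Thermal stability values are relative to control samples and come from duplicates. They are expressed as log2 fold changes. For measurement, K562 cells (2×10^6 cells/mL) received 10 μM compound for 30 min, and aliquots were heated for 3 min over 48°C-58°C, pooled, and extracted at 4°C in PBS with 0.5% NP-40. Soluble protein, the supernatant after 21,000xg for 90 min, was quantified by TMTpro 16plex LC-MS/MS with equalised channel sums.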
SBDS (UniProt Q9Y3A5) was tested, and the log2 fold change was inactive: -0.02. In the case of SCYL2 (UniProt Q6P3W7), the log2 fold change is reported as inactive: -0.024. SDE2 (UniProt Q6IQ49) was tested, and the log2 fold change was inactive: 0.028. With SEC23B (UniProt Q15437) the log2 fold change was inactive: -0.031. With SAYSD1 (UniProt Q9NPB0) the log2 fold change was inactive: -0.197. For SCFD1 (UniProt Q8WVM8), the log2 fold change was inactive: -0.015. With SDAD1 (UniProt Q9NVU7) the log2 fold change was inactive: -0.137. In the case of SCAMP1 (UniProt O15126), the log2 fold change is reported as inactive: 0.02. For S100PBP (UniProt Q96BU1), the log2 fold change was inactive: -0.006. For SCAMP4 (UniProt Q969E2), the log2 fold change was inactive: 0.041. For RTN2 (UniProt O75298), the log2 fold change was inactive: 0.083. With SEC22B (UniProt O75396) the log2 fold change was inactive: -0.083. With RTL8C (UniProt A6ZKI3) the log2 fold change was inactive: 0.005. In the case of RSBN1 (UniProt Q5VWQ0), the log2 fold change is reported as inactive: -0.003. With SDC3 (UniProt O75056) the log2 fold change was active: -0.853. In the case of SCGB2A2 (UniProt Q13296), the log2 fold change is reported as inactive: 0.085. In the case of SDF4 (UniProt Q9BRK5), the log2 fold change is reported as inactive: 0.01. RTN3 isoform 5 (UniProt O95197) was tested, and the log2 fold change was inactive: 0.033. RWDD1 (UniProt Q9H446) was tested, and the log2 fold change was inactive: 0.053. For SARG (UniProt Q9BW04), the log2 fold change was inactive: -0.024. SDHD (UniProt O14521) was tested, and the log2 fold change was inactive: 0.111. SAFB isoform 3 (UniProt Q15424) was tested, and the log2 fold change was inactive: 0.129. SAMM50 (UniProt Q9Y512) was tested, and the log2 fold change was inactive: -0.013. In the case of SAE1 (UniProt Q9UBE0), the log2 fold change is reported as inactive: 0.026. With SCYL1 (UniProt Q96KG9) the log2 fold change was inactive: -0.003. With SCAF4 (UniProt O95104) the log2 fold change was inactive: 0.088. For SDCCAG8 (UniProt Q86SQ7), the log2 fold change was inactive: 0.054. S100A13 (UniProt Q99584) was tested, and the log2 fold change was inactive: 0.019. For SCRN2 (UniProt Q96FV2), the log2 fold change was inactive: -0.069. With S100A16 (UniProt Q96FQ6) the log2 fold change was inactive: -0.173. In the case of S100A14 (UniProt Q9HCY8), the log2 fold change is reported as inactive: -0.061. In the case of SDHB (UniProt P21912), the log2 fold change is reported as inactive: 0.043.
